Assay results taken from publication doi:10.1101/2021.04.29.441967.
These are yes or no findings as the source states them, for the method shown. Binding seen in cells or lysates may run through a third protein. Some binding calls cover weakened binding; strength is not graded here.

Sequences of proteins named here, by UniProt entry; tags and fusion partners are left off.
UniProt Q8IW41: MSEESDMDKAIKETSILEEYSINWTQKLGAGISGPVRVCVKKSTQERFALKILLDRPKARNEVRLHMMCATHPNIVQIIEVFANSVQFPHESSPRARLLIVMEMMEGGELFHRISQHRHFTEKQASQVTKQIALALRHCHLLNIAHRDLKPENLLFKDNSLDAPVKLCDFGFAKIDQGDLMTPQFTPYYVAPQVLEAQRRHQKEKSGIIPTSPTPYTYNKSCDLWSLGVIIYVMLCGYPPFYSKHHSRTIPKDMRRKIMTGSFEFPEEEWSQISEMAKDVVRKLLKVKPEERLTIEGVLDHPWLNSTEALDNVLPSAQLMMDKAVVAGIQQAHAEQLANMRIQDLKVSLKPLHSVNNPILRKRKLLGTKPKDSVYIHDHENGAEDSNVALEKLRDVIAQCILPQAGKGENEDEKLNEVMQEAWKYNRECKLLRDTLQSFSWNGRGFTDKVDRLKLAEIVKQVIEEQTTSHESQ
UniProt P10085: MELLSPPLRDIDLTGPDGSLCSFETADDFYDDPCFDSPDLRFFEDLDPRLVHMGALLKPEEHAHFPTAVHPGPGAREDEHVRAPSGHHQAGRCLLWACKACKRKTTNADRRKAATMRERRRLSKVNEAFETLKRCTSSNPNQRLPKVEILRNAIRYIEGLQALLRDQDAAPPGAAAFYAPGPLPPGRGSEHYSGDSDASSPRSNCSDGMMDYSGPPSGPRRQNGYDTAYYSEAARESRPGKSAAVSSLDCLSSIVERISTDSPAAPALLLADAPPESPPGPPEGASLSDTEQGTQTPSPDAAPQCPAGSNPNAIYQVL
UniProt Q16659: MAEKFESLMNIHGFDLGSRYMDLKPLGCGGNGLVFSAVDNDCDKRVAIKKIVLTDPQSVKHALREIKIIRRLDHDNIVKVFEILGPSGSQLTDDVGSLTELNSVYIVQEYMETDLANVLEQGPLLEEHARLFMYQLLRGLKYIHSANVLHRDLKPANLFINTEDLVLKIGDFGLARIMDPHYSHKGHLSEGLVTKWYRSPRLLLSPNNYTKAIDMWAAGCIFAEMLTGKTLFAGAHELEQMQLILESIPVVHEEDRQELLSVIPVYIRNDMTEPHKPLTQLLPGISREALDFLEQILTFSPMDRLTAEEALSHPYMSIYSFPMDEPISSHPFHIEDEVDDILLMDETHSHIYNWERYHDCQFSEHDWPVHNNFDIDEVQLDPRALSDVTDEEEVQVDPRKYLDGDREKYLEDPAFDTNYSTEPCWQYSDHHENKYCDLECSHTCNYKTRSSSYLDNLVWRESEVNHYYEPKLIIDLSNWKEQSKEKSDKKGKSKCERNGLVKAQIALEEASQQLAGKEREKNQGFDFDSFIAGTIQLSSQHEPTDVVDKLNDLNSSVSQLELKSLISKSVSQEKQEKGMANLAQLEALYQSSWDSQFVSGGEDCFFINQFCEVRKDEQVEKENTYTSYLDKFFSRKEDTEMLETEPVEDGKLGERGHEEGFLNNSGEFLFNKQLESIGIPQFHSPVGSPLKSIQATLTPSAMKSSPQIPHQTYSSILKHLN
UniProt Q9WVH4: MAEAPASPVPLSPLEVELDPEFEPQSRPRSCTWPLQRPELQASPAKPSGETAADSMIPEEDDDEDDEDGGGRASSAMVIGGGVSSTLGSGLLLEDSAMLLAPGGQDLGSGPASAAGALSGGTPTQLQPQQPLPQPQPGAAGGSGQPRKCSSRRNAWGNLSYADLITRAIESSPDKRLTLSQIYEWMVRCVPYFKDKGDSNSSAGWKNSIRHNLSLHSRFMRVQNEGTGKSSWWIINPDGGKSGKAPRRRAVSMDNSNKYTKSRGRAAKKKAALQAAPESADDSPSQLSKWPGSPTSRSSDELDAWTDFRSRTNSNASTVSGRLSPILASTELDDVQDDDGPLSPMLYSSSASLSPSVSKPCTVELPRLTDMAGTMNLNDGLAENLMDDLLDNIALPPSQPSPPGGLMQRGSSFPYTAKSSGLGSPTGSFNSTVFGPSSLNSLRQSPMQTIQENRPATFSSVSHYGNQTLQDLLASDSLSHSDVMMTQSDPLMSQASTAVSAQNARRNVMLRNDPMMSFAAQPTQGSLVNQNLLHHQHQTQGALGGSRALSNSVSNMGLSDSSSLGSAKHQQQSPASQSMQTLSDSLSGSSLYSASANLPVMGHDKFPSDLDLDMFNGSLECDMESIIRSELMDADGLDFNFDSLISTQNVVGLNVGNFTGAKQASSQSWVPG

How the values were obtained:
Assay in all cases: co-IP
[1] = target: MK5-Flag (MAPK-activated protein kinase 5) (UniProt Q8IW41)
MyoD = MyoD (UniProt P10085)
[2] = target: Myc6-ERK3-Flag (Extracellular Signal-Regulated Kinase 3) (UniProt Q16659)

binding [1] | binding (MyoD) | binding [2] | Substance
binds | binds |  | FoxO3-Myc (from UniProt Q9WVH4 1-672)
 |  | binds | MK5-HA (MAPK-activated protein kinase 5) (from UniProt Q8IW41 1-473) (enzyme)
